Laboratory results: PubChem BioAssay AID330 (DTP/NCI, 2004)
The list is a part of this screen's results and no random one: it gathers tests that were run many times, whatever their T/C, doses with no T/C, and many T/C values between a quarter and a half above the control. Further doses and runs are listed elsewhere. T/C gives the treated animals as a percentage of the vehicle group. Some entries give survivors of the animals treated and no T/C: the source holds a T/C of zero for them, seemingly a mark for toxic or unscored doses. Some survivor counts are full or nearly so, which does not show that the dose was tolerated: survival well below the control is almost never listed, so the zero probably covers shortened survival too. Survivors were counted at the toxicity check, usually on the fifth day, unless a day is given; later deaths do not show. Schedule codes are those of the source, read here as Q, the interval in days (D) or hours (H), X, the number of doses. Some doses were run more than once; the results are listed from low to high. For survival time, this PubChem deposit counts one and a half times the control or more as active, and values a quarter to a half above the control carry no call in these data; other NCI protocols may use other cut-offs. Counts like (3×) stand for listed records that agree. Some T/C values are followed by the survivors on the day toxicity was checked, most often the fifth; where none is given, no animal had died by that day.

Test system: P388 leukemia ip, CD2F1 mice, survival T/C
Experiment: NCI In Vivo Anticancer Drug Screen. Data for tumor model P388 Leukemia (intraperitoneal) in CD2F1 (CDF1) mice
Settings: T/C endpoint: median survival time, higher T/C = longer survival
[1] = dose: 100.0 mg/kg/injection, schedule: Q01DX009 (ip), vehicle: saline with Tween-80
[2] = dose: 200.0 mg/kg/injection, schedule: Q01DX009 (ip), vehicle: saline with Tween-80
[3] = dose: 400.0 mg/kg/injection, schedule: Q01DX009 (ip), vehicle: saline with Tween-80
[4] = dose: 100.0 mg/kg/injection, schedule: Q01DX005 (ip), vehicle: saline with Tween-80
[5] = dose: 200.0 mg/kg/injection, schedule: Q01DX005 (ip), vehicle: saline with Tween-80
[6] = dose: 200.0 mg/kg/injection, schedule: Q01DX009 (ip), vehicle: saline
[7] = dose: 400.0 mg/kg/injection, schedule: Q01DX009 (ip), vehicle: Klucel (hydroxypropylcellulose) (HPC)
[8] = dose: 50.0 mg/kg/injection, schedule: Q01DX009 (ip), vehicle: saline
[9] = dose: 100.0 mg/kg/injection, schedule: Q01DX009 (ip), vehicle: saline
[10] = dose: 50.0 mg/kg/injection, schedule: Q01DX005 (ip), vehicle: saline with Tween-80

## COc1cc2c(cc1OC)C(=O)Cc1ccc3c(c1CN(C)CC2)OCO3
[1]
  survivor count: 6 of 6
[2]
  survivor count: 6 of 6
[3]
  survivor count: 2 of 6

## Cc1ccc2no[n+]([O-])c2c1[N+](=O)[O-]
[4]
  T/C: 139 % of control
[5]
  T/C: 140 % of control [4 of 5 alive]
dose: 400.0 mg/kg/injection, schedule: Q01DX005 (ip), vehicle: saline with Tween-80
  survivor count: 0 of 6

## CC[As](=O)(O)CC(C)C
dose: 100.0 mg/kg/injection, schedule: Q04DX002 (ip), vehicle: saline
  survivor count: 0 of 6 and 4 of 6
dose: 200.0 mg/kg/injection, schedule: Q04DX002 (ip), vehicle: saline
  survivor count: 0 of 6
dose: 400.0 mg/kg/injection, schedule: Q04DX002 (ip), vehicle: saline
  survivor count: 1 of 6

## C=CC(O)CC#N (stereo not given)
dose: 150.0 mg/kg/injection, schedule: Q01DX009 (ip), vehicle: saline with Tween-80
  survivor count: 0 of 6
dose: 300.0 mg/kg/injection, schedule: Q01DX009 (ip), vehicle: saline with Tween-80
  survivor count: 0 of 6

## CS(=O)(=O)OCCOS(C)(=O)=O
dose: 200.0 mg/kg/injection, schedule: Q01DX009 (ip), vehicle: Klucel (hydroxypropylcellulose) (HPC)
  T/C: 133 % of control
[6]
  T/C: 133 % of control
[7]
  T/C: 143 % of control

## CN(C)c1nc2c(N)ncnc2n1C1OC(CO)C(O)C1O (stereo not given)
[4]
  T/C: 138 % of control
[1]
  survivor count: 3 of 3
[2]
  survivor count: 0 of 3
[3]
  survivor count: 0 of 3

## C=CCc1ccc(O)c(OC)c1
dose: 200.0 mg/kg/injection, schedule: Q01DX009 (ip), vehicle: other
  survivor count: 6 of 6
dose: 400.0 mg/kg/injection, schedule: Q01DX009 (ip), vehicle: other
  survivor count: 0 of 6

## N#CC1CCN(Cc2ccccc2)C(C#N)C1 (stereo not given)
dose: 120.0 mg/kg/injection, schedule: Q01DX005 (ip), vehicle: Klucel (hydroxypropylcellulose) (HPC)
  survivor count: 0 of 6
dose: 240.0 mg/kg/injection, schedule: Q01DX005 (ip), vehicle: Klucel (hydroxypropylcellulose) (HPC)
  survivor count: 0 of 6

## CCc1nc(N)nc(N)c1-c1ccc(N)cc1
[4]
  survivor count: 0 of 6
[5]
  survivor count: 0 of 6

## O=CC(NC(=O)N(CCCl)N=O)C(O)C(O)C(O)CO (stereo not given)
dose: 1.5 mg/kg/injection, schedule: Q01DX005 (ip), vehicle: water
  T/C: 132 % of control
dose: 2.59 mg/kg/injection, schedule: Q04DX002 (ip), vehicle: saline
  T/C: 145 % of control
dose: 3.0 mg/kg/injection, schedule: Q01DX005 (iv), vehicle: saline
  T/C: 137 % of control
dose: 6.25 mg/kg/injection, schedule: Q01DX009 (ip), vehicle: saline
  T/C: 142 % of control
dose: 12.0 mg/kg/injection, schedule: Q01DX001 (iv), vehicle: saline
  T/C: 138 % of control
dose: 12.5 mg/kg/injection, schedule: Q01DX009 (ip), vehicle: saline
  survivor count: 6 of 6
dose: 24.0 mg/kg/injection, schedule: Q01DX005 (ip), vehicle: saline
  survivor count: 6 of 6
dose: 24.0 mg/kg/injection, schedule: Q01DX005 (ip), vehicle: water
  survivor count: 4 of 5
dose: 24.0 mg/kg/injection, schedule: Q01DX005 (iv), vehicle: saline
  survivor count: 6 of 6
dose: 24.0 mg/kg/injection, schedule: Q04DX003 (ip), vehicle: saline
  survivor count: 8 of 8
dose: 27.0 mg/kg/injection, schedule: Q04DX003 (ip), vehicle: saline
  T/C: 127 % of control
dose: 48.0 mg/kg/injection, schedule: Q01DX001 (ip), vehicle: saline
  survivor count: 6 of 6
dose: 48.0 mg/kg/injection, schedule: Q01DX001 (iv), vehicle: saline
  survivor count: 6 of 6

## COC(=O)C1=C(C(=O)OC)[C]([Hg][CH3])(C(C)=O)N=N1 (stereo not given)
dose: 25.0 mg/kg/injection, schedule: Q01DX009 (ip), vehicle: saline
  survivor count: 0 of 6
[8]
  survivor count: 0 of 6
[9]
  survivor count: 0 of 6
[6]
  survivor count: 0 of 6

## CCP(CC)(c1ccccc1)=c1c(=O)c(Cl)c(Cl)c(=O)c1=O
dose: 50.0 mg/kg/injection, schedule: Q01DX005 (ip), vehicle: Klucel (hydroxypropylcellulose) (HPC)
  survivor count: 1 of 6
dose: 100.0 mg/kg/injection, schedule: Q01DX005 (ip), vehicle: Klucel (hydroxypropylcellulose) (HPC)
  survivor count: 0 of 6
dose: 200.0 mg/kg/injection, schedule: Q01DX005 (ip), vehicle: Klucel (hydroxypropylcellulose) (HPC)
  survivor count: 0 of 6

## CCN(CC)C1=Nc2ccccc2N(c2ccccc2)C(N2CCCCC2)=C1
dose: 100.0 mg/kg/injection, schedule: Q04DX002 (ip), vehicle: Klucel (hydroxypropylcellulose) (HPC)
  survivor count: 0 of 6
dose: 200.0 mg/kg/injection, schedule: Q04DX002 (ip), vehicle: Klucel (hydroxypropylcellulose) (HPC)
  survivor count: 1 of 6
dose: 400.0 mg/kg/injection, schedule: Q04DX002 (ip), vehicle: Klucel (hydroxypropylcellulose) (HPC)
  survivor count: 0 of 6

## C/C(=N\NC(=S)N1CC2CCC(CC2)C1)c1cccc(C)n1
dose: 12.5 mg/kg/injection, schedule: Q01DX005 (ip), vehicle: saline with Tween-80
  T/C: 135 % of control
[10]
  T/C: 140 % of control
  survivor count: 3 of 6
[4]
  survivor count: 2 of 6
[5]
  survivor count: 0 of 6

## COc1ccc2[se]c(C(=O)O)cc2c1
[6]
  survivor count: 6 of 6

## C[n+]1c(C[n+]2ccccc2)ccc2ccccc21
dose: 200.0 mg/kg/injection, schedule: Q01DX005 (ip), vehicle: saline
  survivor count: 0 of 6

## CN1C(=O)C2C3C=CC(C2C1=O)C1C2C(=O)N(C)C(=O)C2C31 (stereo not given)
[7]
  T/C: 135 % of control

## COC1=C(OC)C(=O)C(C/C=C(\C)CC/C=C(\C)CC/C=C(\C)CC/C=C(\C)CC/C=C(\C)CC/C=C(\C)CC/C=C(\C)CC/C=C(\C)CC/C=C(\C)CCC=C(C)C)=C(C)C1=O
dose: 12.5 mg/kg/injection, schedule: Q01DX009 (ip), vehicle: saline with Tween-80
  survivor count: 6 of 6
dose: 50.0 mg/kg/injection, schedule: Q01DX009 (ip), vehicle: saline with Tween-80
  survivor count: 6 of 6

## c1ccc(P2(c3ccccc3)(c3ccccc3)OCC3CC32)cc1 (stereo not given)
dose: 100.0 mg/kg/injection, schedule: Q01DX009 (ip), vehicle: olive oil, sesame oil, peanut oil
  survivor count: 6 of 6
dose: 200.0 mg/kg/injection, schedule: Q01DX009 (ip), vehicle: olive oil, sesame oil, peanut oil
  survivor count: 6 of 6

## O=CNNC(=S)Nc1ccccc1
[3]
  survivor count: 2 of 6

## NC(=O)c1[nH]nc(C2OC(CO)C(O)C2O)c1O (stereo not given)
dose: 0.67 mg/kg/injection, schedule: Q01DX009 (ip), vehicle: saline
  T/C: 126 % of control
dose: 1.0 mg/kg/injection, schedule: Q01DX009 (ip), vehicle: saline
  T/C: 129 % of control (2×)
dose: 1.25 mg/kg/injection, schedule: Q01DX009 (ip), vehicle: saline
  survivor count: 6 of 6
dose: 2.0 mg/kg/injection, schedule: Q01DX009 (ip), vehicle: saline
  T/C: 132 and 133 % of control
dose: 2.5 mg/kg/injection, schedule: Q01DX009 (ip), vehicle: saline with Tween-80
  survivor count: 6 of 6
dose: 5.0 mg/kg/injection, schedule: Q01DX009 (ip), vehicle: saline with Tween-80
  survivor count: 6 of 6
dose: 10.0 mg/kg/injection, schedule: Q01DX009 (ip), vehicle: saline with Tween-80
  survivor count: 6 of 6
dose: 20.0 mg/kg/injection, schedule: Q04DX003 (ip), vehicle: saline sonified
  survivor count: 6 of 6
dose: 40.0 mg/kg/injection, schedule: Q04DX003 (ip), vehicle: saline sonified
  survivor count: 6 of 6

## CC[CH](C)[Sn](=[O])[CH](C)CC (stereo not given)
dose: 6.25 mg/kg/injection, schedule: Q01DX009 (ip), vehicle: suspension in saline
  survivor count: 2 of 6
dose: 12.5 mg/kg/injection, schedule: Q01DX009 (ip), vehicle: suspension in saline
  survivor count: 2 of 6
dose: 25.0 mg/kg/injection, schedule: Q01DX009 (ip), vehicle: suspension in saline
  survivor count: 0 of 6
[8]
  survivor count: 0 of 6
[9]
  survivor count: 0 of 6
[6]
  survivor count: 0 of 6
